Laboratory results published in PubChem BioAssay AID1347075 (National Center for Advancing Translational Sciences (NCATS), 2019).
Hit rate of the full screen: of about 400,000 compounds, about 5,500 (1.4%) were called active. Inconclusive results, whose numbers are uncertain, are shown with a selection of clear calls. Calls follow the shape of the dose curve; as a rule, active = well fitted cell-killing curve with a large enough effect; inconclusive = small, poorly fitted or top-dose-only effect, or effect the other way; inactive = flat fitted curve, though single readings scatter. A potency beside an inconclusive call is a rough fit, not a confirmed value.

test: qHTS assay for MDR1-selective chemotherapeutics: Primary screen using the parental adenocarcinoma cell KB-3-1; settings: KB-3-1 viability, CellTiter-Glo ATP luminescence, 72 h; activity change, negative = cytotoxic: at 46.1 µM (top of the series); also: nearly all actives have a fitted effect of over 60% in size
Outline: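 Multi-concentration cytotoxicity screen in KB-3-1 cells grown in DMEM lacking phenol red with 10% FBS. After 72 h at 37 °C with compound, ATP-dependent luminescence was recorded.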
% is scaled to controls: 0 for no effect and ±100 for the full control effect; potency is read from the fitted curve at half-maximal effect.

| SMILES | Potency | activity change, negative = cytotoxic |
| --- | --- | --- |
| Cc1ccnc(NC(=O)c2ccc([N+](=O)[O-])o2)c1 | inconclusive: 29.1 µM [cytotoxic, single point] | – |
| CN(c1ccccc1)S(=O)(=O)c1cccc(NC(=O)CCNC(=O)c2ccc(Cl)cc2)c1 | inconclusive: 29.1 µM [cytotoxic, single point] | – |
| NC(Cc1ccc(F)cc1)c1csc(NC(=O)NC(c2ccccc2)c2ccccc2)n1 (stereo not drawn) | inconclusive: 20.6 µM [cytotoxic, single point] | – |
| C=CCn1c(CCNC(=O)c2cccs2)nnc1SCC(=O)c1cccc([N+](=O)[O-])c1 | – | inactive: -0.0412% |
| OCCN(CCO)c1ccc(/C=C/c2ccnc3ccccc23)cc1 | inconclusive: 16.4 µM [cytotoxic, single point] | – |
| CC(=O)c1cccc(NS(=O)(=O)c2cc(-c3onc(C)c3C)ccc2C)c1 | active: 14.6 µM | – |
| COc1ccc(NS(=O)(=O)c2ccc(-c3coc(C)n3)cc2)cc1OC | inconclusive: 8.2 µM [cytotoxic, partial curve, poor fit] | – |
| CC1(Cc2ccc(Cl)cc2)C(=O)Nc2ccc(S(=O)(=O)NC3CCCCC3)cc21 (stereo not drawn) | inconclusive: 29.1 µM [cytotoxic, partial curve, poor fit] | – |
| CCOC(=O)C1=C(c2ccccc2)N=c2s/c(=C\c3ccc(O)cc3)c(=O)n2C1c1cccs1 (stereo not drawn) | inconclusive: 29.1 µM [cytotoxic, single point] | – |
| Cc1nc2ccccc2n1CC(=O)c1ccc(O)c(O)c1 | inconclusive: 5.17 µM [rising, full curve] | – |
| Cc1ccc(OCCn2c(C)nc3ccccc32)cc1 | inconclusive: 8.2 µM [cytotoxic, partial curve, poor fit] | – |
| COc1ccc(CNC(=O)CN(C(=O)CCC(=O)Nc2ccccn2)c2ccc3c(c2)OCO3)cc1 | – | inactive: 12% |
| COc1ccc(S(=O)(=O)N2CCN(c3nc(-c4cccnc4)nc4ccccc34)CC2)cc1 | inconclusive: 18.4 µM [cytotoxic, single point] | – |
| COc1ccc(CNCCCSc2nnnn2-c2ccccc2)cc1 | – | inactive: -2.13% |
| O=C(NC1CC2CCCC(C1)N2C(=S)Nc1ccc(Cl)cc1)C1CC1 (stereo not drawn) | inconclusive: 29.1 µM [rising, single point] | – |
| Cc1onc(-c2ccccc2)c1C(=O)Nc1nc(-c2cc(F)ccc2F)cs1 | – | inactive: 3.27% |
| CCC[N+](C)(C)c1ccc(/C=C/c2ccncc2)cc1 | active: 1.46 µM | – |
| Cc1ccc(S(=O)(=O)N/N=C/c2ccc(OCC(=O)Nc3ccccc3Cl)cc2)cc1 | inconclusive: 10.3 µM [cytotoxic, partial curve] | – |
| Cc1ccc(C(=O)COC(=O)CNC(=O)COc2ccccc2C)cc1C | inconclusive: 11.6 µM [rising, partial curve, poor fit] | – |
| COc1cc(C(=O)Nc2ccc3c(c2)OCCO3)ccc1OC(F)F | inconclusive: 11.6 µM [cytotoxic, partial curve] | – |
| CC1=C(C(=O)N(C)C)CC(CC(=O)NCc2cccs2)C(=O)N1CCC1=CCCCC1 (stereo not drawn) | – | inactive: -26.5% |
| COc1ccc(C(=O)N2CCC(c3nc4ccccc4s3)CC2)cc1Cl | inconclusive: 20.6 µM [cytotoxic, single point] | – |
| N#Cc1ccc(CN2CCN(C(=O)Cn3nc(C(N)=O)c4ccccc4c3=O)CC2)cc1 | – | inactive: -11.4% |
| Cc1ccc2c(c1)nnn2C1CCN(CC(=O)N2CCN(c3ccc(F)cc3)CC2)CC1 | – | inactive: -17.3% |
| O=C(NCc1nnnn1-c1ccc(F)cc1)c1ccc(S(=O)(=O)N2CCOCC2)cc1 | – | inactive: -4.94% |

| SMILES | Potency | activity change, negative = cytotoxic |
| --- | --- | --- |
| Cc1ccc2oc(C(=O)Nc3ccc(S(=O)(=O)N(C)c4ccccc4)cc3)cc(=O)c2c1 | inconclusive: 32.6 µM [rising, single point] | – |
| CCOc1cccc(C2C=C(c3ccc4c(c3)OCO4)NC(c3cccc(Br)c3)N2)c1O (stereo not drawn) | inconclusive: 29.1 µM [cytotoxic, single point] | – |
| COc1cc(OC)c2c(-c3cccc(-c4ccc(N(C)C)cc4)c3)cc(=O)oc2c1 | active: 2.59 µM | – |
| C/C(=N\O)c1ccc2[nH]ccc2c1 | – | inactive: -0.382% |
| CCC(=O)NC(=S)Nc1ccc(NC(=O)COc2ccccc2)cc1 | inconclusive: 20.6 µM [rising, single point] | – |
| CCc1ccccc1NC(=O)Cn1c(=O)n(CCCCCC(=O)NCc2ccc(C)cc2)c(=O)c2sccc21 | – | inconclusive: 1.1% |
| COc1cc(/C=N/O)cc(Br)c1OCc1cccc(Cl)c1 | active: 14.6 µM | – |
| Cc1cccc(-n2nnc(C(=O)NC3CCCc4ccccc43)c2N)c1 (stereo not drawn) | inconclusive: 29.1 µM [cytotoxic, single point] | – |
| CCc1nc2ccc(C(=O)NCCCN(C)C)cn2c1N(C)CCCc1ccccc1 | – | inactive: -0.0416% |
| CC(=O)Nc1ccc(/C=C/c2ccccn2)cc1 | inconclusive: 13 µM [cytotoxic, single point] | – |
| C=CCNC(=S)NNC(=O)c1ccc(C)c(Cl)c1 | inconclusive: 29.1 µM [cytotoxic, single point] | – |
| CCn1c(-c2ccc(N)cc2)nc2ccccc21 | inconclusive: 10.3 µM [rising, single point] | – |
| Cc1ccc(Cl)cc1NC(=O)CCNC(=O)N1CC(=O)Nc2ccccc21 | – | inactive: 3.72% |
| O=C(Cc1ccccc1)NNc1ccc2ccccc2c1 | inconclusive: 20.6 µM [cytotoxic, single point] | – |
| Cc1ccc(OC(=O)c2ccncc2)c(C)c1 | inconclusive: 1.03 µM [rising, full curve] | – |
| CN(CC(=O)Nc1cccc(F)c1)C(=O)CCSc1ccc(F)cc1 | active: 8.2 µM | – |
| CCOC(=O)CN1C(=O)CC(c2ccc([N+](=O)[O-])cc2)C1=O (stereo not drawn) | – | inactive: -3.16% |
| Nc1nnnn1/N=C/C=C/c1ccccc1 | – | inactive: -1.46% |
| COC(=O)[C@]12CCCCC=C1N(CCC1=CCCCC1)C(=O)[C@H](CC(=O)NCCc1ccccc1OC)C2 | inconclusive: 23.1 µM [cytotoxic, single point] | – |
| O=C(NCCN1C(=O)S/C(=C\c2ccc(Cl)cc2Cl)C1=O)C1=COCCO1 | inconclusive: 29.1 µM [cytotoxic, single point] | – |
| COc1cc2c(cc1OC)CN(C(=O)c1cc(S(=O)(=O)N3CCCCC3)ccc1Cl)CC2 | – | inactive: 0% |
| O=C(O)c1ccc(CSc2nc3ccc(N4C(=O)C5C6C=CC(C6)C5C4=O)cc3s2)cc1 (stereo not drawn) | – | inactive: 3.58% |
| COC(=O)[C@]12CCCCC=C1N(CCc1ccc(OC)c(OC)c1)C(=O)[C@H](CC(=O)NCC1CCCCC1)C2 | inconclusive: 18.4 µM [cytotoxic, single point] | – |
| CCc1ccc(OCCCC(=O)NCc2ccco2)cc1 | – | inactive: -0.513% |
| Cc1cc(C)nc(-n2ncc3c2CC(c2cccc(Cl)c2)CC3=O)n1 (stereo not drawn) | inconclusive: 29.1 µM [cytotoxic, single point] | – |

| SMILES | Potency | activity change, negative = cytotoxic |
| --- | --- | --- |
| CCOC(=O)CN1C(C(=O)c2ccccc2)=C(OC(=O)C(C)(C)C)c2ccccc2S1(=O)=O | – | inactive: 5.45% |
| Cc1ccc(NC(=S)N=Nc2c(O)n(C)c3ccc(S(=O)(=O)N4CCOCC4)cc23)cc1 | inconclusive: 3.26 µM [cytotoxic, full curve, poor fit] | – |
| CCOc1ccc(CNc2ccc3c(c2)ncn3C(C)(C)C)cc1 | – | inactive: -3.28% |
| COc1cc2[nH]c(-c3cccc(F)c3)cc(=O)c2cc1OC | inconclusive: 20.6 µM [cytotoxic, single point] | – |
| O=C(Nc1ccc2c(c1)OCCO2)C1CCN(S(=O)(=O)c2ccc(Br)s2)CC1 | inconclusive: 16.4 µM [cytotoxic, partial curve] | – |
| Cc1ccc(O)c(C(=O)CC(=O)c2ccc(C(C)(C)C)cc2)c1 | inconclusive: 29.1 µM [cytotoxic, single point] | – |
| COc1cc(O)c(C(CC(=O)N2CCCC2)c2cc(OC)c(OC)c(OC)c2)c(OC)c1 (stereo not drawn) | – | inactive: 2.71% |
| Cc1cc(C)n(-c2nc3cc(Cl)ccc3nc2Nc2ccc(C)c(F)c2)n1 | – | inactive: 12.2% |
| CC(C)C[C@@H](COCc1cccc(C(F)(F)F)c1)N1CCN(C(=O)c2ccc(C(F)(F)F)cc2)CCC1=O | inconclusive: 29.1 µM [cytotoxic, single point] | – |
| CC1CCN(C(=O)CN(c2ccc(Cl)c(C(F)(F)F)c2)S(C)(=O)=O)CC1 | inconclusive: 32.6 µM [rising, single point] | – |
| O=C(CNS(=O)(=O)c1ccccc1)N/N=C/c1ccncc1 | – | inconclusive: -0.285% |
| CCc1cc2c(NCc3ccccc3)nc(C)nc2s1 | inconclusive: 20.6 µM [cytotoxic, single point] | – |
| C=CCn1c(O)c(N=NC(=O)CNC(=O)c2ccco2)c2ccccc21 | inconclusive: 25.9 µM [cytotoxic, single point] | – |
| Cc1cc(C(=O)Cn2nnc3ccccc3c2=O)c(C)n1-c1ccccc1F | active: 5.17 µM | – |
| O=S1(=O)CCOCCCN1Cc1ccccc1Br | inactive | – |
| CC1(Cc2ccccc2OC(F)(F)F)C(=O)Nc2ccc(S(=O)(=O)NC3CCCCC3)cc21 (stereo not drawn) | – | inactive: 0% |
| CCOc1ccccc1NC(=O)N1c2ccccc2Sc2ccccc21 | – | inactive: -14.7% |
| CC(=O)N(C(C)=O)c1ncnc2c1c(-c1ccc(Cl)cc1)nn2C(C)(C)C | inconclusive: 25.9 µM [cytotoxic, single point] | – |
| O=C(Nc1cc(S(=O)(=O)N2CCCC2)ccc1Cl)c1ccncc1 | – | inactive: -2.16% |
| CCOC(=O)c1c(C)nc2ccccc2c1-c1ccccc1 | – | inactive: 1.43% |
| CCC(=O)NC(=S)Nc1ccc(-c2nc3ccc(C)cc3s2)cc1 | inconclusive: 32.6 µM [rising, single point] | – |
| C/C(=N\NC(N)=S)c1ccc(Cl)s1 | active: 16.4 µM | – |
| CC1(c2nnc(-c3cccc(Cl)c3)o2)CC(c2ccc(F)cc2)=NO1 (stereo not drawn) | inconclusive: 29.1 µM [cytotoxic, single point] | – |

No new results follow: 3 of the compounds above.

| SMILES | Potency | activity change, negative = cytotoxic |
| --- | --- | --- |
| COc1ccc(C(=O)N2CCC(c3nc4ccccc4s3)CC2)cc1Cl | inconclusive: 20.6 µM [cytotoxic, single point] | – |
| N#Cc1ccc(CN2CCN(C(=O)Cn3nc(C(N)=O)c4ccccc4c3=O)CC2)cc1 | – | inactive: -11.4% |
| Cc1ccc2c(c1)nnn2C1CCN(CC(=O)N2CCN(c3ccc(F)cc3)CC2)CC1 | – | inactive: -17.3% |
